# Values of other authors, collected in patent publication US20170066779A1, “SOLID FORMS OF A FLAVIVIRIDAE VIRUS INHIBITOR COMPOUND AND SALTS THEREOF” (IDENIX Pharmaceuticals LLC, priority 2014, published 2017).
# Some entries share one result that the patent states for a list of compounds.
# Test system: HCV
# Details: adults with chronic HCV infection; in combination with interferon and/or ribavirin; cited from earlier work
structure (smiles),measurement,value
COc1ccc2c(O[C@@H]3C[C@H]4C(=O)N[C@]5(C(=O)NS(=O)(=O)C6CC6)C[C@H]5/C=C\CCCCN(C)C(=O)[C@@H]4C3)cc(-c3nc(C(C)C)cs3)nc2c1C [simeprevir],cure rates,up to 80%
